# About 3,700 (1.2%) of roughly 300,000 compounds were called active. The inconclusive results got no clear call from the source; some entries with a clear call stand among them for comparison. Calls come from the whole dose curve; tested in HEK293 cells. Potencies beside an inconclusive call are fits to weak or partial responses and may not hold up.
# Experiment: qHTS for Inhibitors of binding or entry into cells for Lassa Virus; note: nearly all actives have a fitted effect of over 50% in size
# Settings: Lassa virus pseudotype entry inhibition, cell reporter; series mostly up to 37.9 µM
# Potency is the fitted concentration of half-maximal effect.
row,SMILES,Potency
1,CCCN1CN(CCc2ccccc2)CNC1=S,"inconclusive: 1.58 µM [activator, partial curve, poor fit]"
2,COC(=O)[C@@]1(Cc2ccc(F)cc2)[C@H]2c3cc(C(=O)N(C)C)[nH]c3C[C@H]2CN1C(=O)c1ccccc1,"inconclusive: 3.66 µM [inhibitor, single point]"
3,Cc1ccc(C(=C2C3C=CC2C2C(=O)NC(=O)C32)c2ccc(C)cc2)cc1 (configuration not stated),"inconclusive: 16.4 µM [inhibitor, partial curve, poor fit]"
4,CCN=c1scc(-c2ccc(F)cc2)n1/N=C/c1ccccn1,"inconclusive: 35.5 µM [inhibitor, single point]"
5,O=C1Nc2ccc(-c3cccnc3)cc2C1=Cc1cc(Br)c(O)c(Br)c1,active: 12.5 µM
6,Cc1onc(-c2c(Cl)cccc2Cl)c1C(=O)N1CCN(c2ccc(F)cc2)CC1,"inconclusive: 1.12 µM [inhibitor, full curve, poor fit]"
7,CCOC(=O)C1=C(CN2CC(C)CC(C)C2)NC(=O)NC1c1ccc2c(c1)OCO2 (configuration not stated),"inconclusive: 11.2 µM [inhibitor, single point]"
8,Cc1nc(-c2noc(-c3ccc(Cl)cc3)n2)c(C(F)(F)F)o1,"inconclusive: 14.1 µM [activator, single point]"
9,Cc1cnn(-c2cc(Oc3ccccc3)ncn2)c1,"inconclusive: 6.51 µM [activator, partial curve, poor fit]"
10,COc1ccc(/C(N)=N/OC(=O)c2cccc([N+](=O)[O-])c2)cc1,"inconclusive: 2 µM [activator, full curve]"
11,Cc1cc(C)nc(N/N=C/c2ccccc2OCc2cccc(Br)c2)n1,"inconclusive: 35.5 µM [inhibitor, single point]"
12,CC(C)(C)c1csc(NC(=O)c2cccs2)n1,"inconclusive: 35.5 µM [inhibitor, single point]"
13,Cn1c(CN2CCCCC2)nc2cc(NC(=O)c3cccc(Br)c3)ccc21,"inconclusive: 16.4 µM [inhibitor, single point]"
14,CCCCCN(C(=O)CCC(=O)OCc1ccc(C(C)(C)C)cc1)c1c(N)n(CCCC)c(=O)[nH]c1=O,"inconclusive: 10 µM [inhibitor, partial curve, poor fit]"
15,CCCCn1cc(S(=O)(=O)c2ccc(C)c(C)c2)c(=O)c2cc(F)c(N3CCN(C)CC3)cc21,"inconclusive: 17.8 µM [activator, partial curve, poor fit]"
16,CC(=O)/C(=N\Nc1ccccc1)Sc1nncn1C,inactive
17,OC1(c2ccccc2)CCN(Cc2ccccc2)C2CCCCC21 (configuration not stated),"inconclusive: 10 µM [inhibitor, partial curve]"

# From compound 14 to 15, as listed above:
row,SMILES,Potency
14,CCCCCN(C(=O)CCC(=O)OCc1ccc(C(C)(C)C)cc1)c1c(N)n(CCCC)c(=O)[nH]c1=O,"inconclusive: 10 µM [inhibitor, partial curve, poor fit]"
15,CCCCn1cc(S(=O)(=O)c2ccc(C)c(C)c2)c(=O)c2cc(F)c(N3CCN(C)CC3)cc21,"inconclusive: 17.8 µM [activator, partial curve, poor fit]"

# Source: PubChem BioAssay AID540256 (National Center for Advancing Translational Sciences (NCATS), 2011)
